The text below walks through data of patent US11191811B2, “Osteocalcin as a treatment for frailty associated with aging” (THE TRUSTEES OF COLUMBIA UNIVERSITY IN THE CITY OF NEW YORK, priority 2014, dated 2021).

This data set can be described thus: Circulating osteocalcin and insulin levels after osteocalcin delivery (ELISA). Type of data set: in vivo, mouse. The method, then: First, whether a single intraperitoneal injection of uncarboxylated mouse osteocalcin (osteocalcin) (100 ng/g of body weight) immediately before exercise would improve the exercise capacity of 3 month-old WT mice was tested.
To determine if osteocalcin has the same ability in older mice, 12 and 15 month-old mice that have low circulating osteocalcin levels were injected prior to running with 500 ng/g of body weight of osteocalcin in order to raise their circulating levels substantially. […] This was due to an increase in the phosphorylation of Akt, AMPK and HSL, as well as in glucose uptake, that occurred to a greater extent in oxidative muscles that express Gprc6a at the highest level, than in glycolytic muscles (FIG. 31C-F). Whether chronic delivery of osteocalcin through mini-pumps (90 ng/hour) for 28 days would increase muscle function in 9 month old mice that have the lowest circulating osteocalcin levels was also tested. […] This improved ability to perform exercise was caused in part by an increase in the expression in muscle of the fatty acid transporter Fatp1 and an activation of the Akt pathway (FIG. 31H-).
Serum osteocalcin, PINP, CTX, and insulin levels were measured using ELISA assays. Blood glucose level was measured using an Accu-Check glucometer. Urine 3-MHT was measured as previously described (Aranibar et al., 2011, Anal. Biochem. 410:84-91). […]

As for “uncarboxylated osteocalcin: Recombinant uncarboxylated mouse osteocalcin, bacterially produced, purified on glutathione beads and cleaved from the GST subunit by thrombin (YLGASVPSPDPLEPTREQCELNPACDELSDQYGLKTAYKRIYGITI)”, the circulating insulin levels result was “without affecting” (3 month-old WT mice, single i.p. injection 100 ng/g) and “did not affect” (mini-pumps 90 ng/hour for 28 days, 9 month old mice).
